The values below come from publication PMC8245473.

Protein sequences, listed by entry. Tags and fused reporters are not part of them. Residues count along the entry.
UniProt O00206, residues 24-839: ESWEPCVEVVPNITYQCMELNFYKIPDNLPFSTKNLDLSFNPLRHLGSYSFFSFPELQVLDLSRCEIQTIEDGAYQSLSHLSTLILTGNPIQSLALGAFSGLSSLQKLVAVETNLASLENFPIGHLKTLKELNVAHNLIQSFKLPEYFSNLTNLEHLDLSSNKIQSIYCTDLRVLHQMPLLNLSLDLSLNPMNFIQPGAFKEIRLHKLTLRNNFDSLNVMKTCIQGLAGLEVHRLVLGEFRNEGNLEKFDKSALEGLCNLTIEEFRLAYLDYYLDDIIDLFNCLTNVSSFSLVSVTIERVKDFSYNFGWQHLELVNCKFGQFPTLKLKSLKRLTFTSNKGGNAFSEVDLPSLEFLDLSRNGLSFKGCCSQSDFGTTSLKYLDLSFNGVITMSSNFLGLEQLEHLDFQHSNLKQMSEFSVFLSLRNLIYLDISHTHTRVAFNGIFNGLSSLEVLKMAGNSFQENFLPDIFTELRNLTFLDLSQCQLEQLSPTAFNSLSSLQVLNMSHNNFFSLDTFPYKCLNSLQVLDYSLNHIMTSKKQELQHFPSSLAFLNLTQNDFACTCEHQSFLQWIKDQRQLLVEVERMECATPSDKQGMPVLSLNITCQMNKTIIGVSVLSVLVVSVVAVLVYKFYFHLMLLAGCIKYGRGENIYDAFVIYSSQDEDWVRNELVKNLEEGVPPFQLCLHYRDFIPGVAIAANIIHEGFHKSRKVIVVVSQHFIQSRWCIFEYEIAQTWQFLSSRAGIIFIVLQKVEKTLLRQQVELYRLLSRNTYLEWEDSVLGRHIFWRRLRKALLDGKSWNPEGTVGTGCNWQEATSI
UniProt Q99836: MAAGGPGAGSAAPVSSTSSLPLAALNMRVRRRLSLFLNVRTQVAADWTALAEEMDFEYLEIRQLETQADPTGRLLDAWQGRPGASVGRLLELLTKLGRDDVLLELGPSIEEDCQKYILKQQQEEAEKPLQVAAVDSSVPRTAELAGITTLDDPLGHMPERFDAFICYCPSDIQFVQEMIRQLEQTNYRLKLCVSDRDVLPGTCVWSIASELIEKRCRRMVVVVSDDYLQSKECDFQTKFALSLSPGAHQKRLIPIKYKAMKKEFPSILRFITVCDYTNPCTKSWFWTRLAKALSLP
UniProt P22366: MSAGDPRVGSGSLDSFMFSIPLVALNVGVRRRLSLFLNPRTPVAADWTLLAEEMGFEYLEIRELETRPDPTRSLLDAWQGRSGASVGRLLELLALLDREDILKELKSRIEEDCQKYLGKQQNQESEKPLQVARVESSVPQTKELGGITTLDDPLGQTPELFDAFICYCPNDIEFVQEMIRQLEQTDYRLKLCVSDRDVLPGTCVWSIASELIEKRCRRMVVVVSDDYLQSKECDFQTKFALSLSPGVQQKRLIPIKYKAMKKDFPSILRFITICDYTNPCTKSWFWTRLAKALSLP
UniProt P58753: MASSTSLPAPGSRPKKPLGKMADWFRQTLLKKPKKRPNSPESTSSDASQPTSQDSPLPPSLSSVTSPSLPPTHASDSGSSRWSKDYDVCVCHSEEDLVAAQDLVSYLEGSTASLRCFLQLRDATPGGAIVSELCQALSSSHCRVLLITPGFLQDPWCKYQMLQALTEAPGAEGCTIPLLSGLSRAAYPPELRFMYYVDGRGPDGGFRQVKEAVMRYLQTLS
UniProt P51617: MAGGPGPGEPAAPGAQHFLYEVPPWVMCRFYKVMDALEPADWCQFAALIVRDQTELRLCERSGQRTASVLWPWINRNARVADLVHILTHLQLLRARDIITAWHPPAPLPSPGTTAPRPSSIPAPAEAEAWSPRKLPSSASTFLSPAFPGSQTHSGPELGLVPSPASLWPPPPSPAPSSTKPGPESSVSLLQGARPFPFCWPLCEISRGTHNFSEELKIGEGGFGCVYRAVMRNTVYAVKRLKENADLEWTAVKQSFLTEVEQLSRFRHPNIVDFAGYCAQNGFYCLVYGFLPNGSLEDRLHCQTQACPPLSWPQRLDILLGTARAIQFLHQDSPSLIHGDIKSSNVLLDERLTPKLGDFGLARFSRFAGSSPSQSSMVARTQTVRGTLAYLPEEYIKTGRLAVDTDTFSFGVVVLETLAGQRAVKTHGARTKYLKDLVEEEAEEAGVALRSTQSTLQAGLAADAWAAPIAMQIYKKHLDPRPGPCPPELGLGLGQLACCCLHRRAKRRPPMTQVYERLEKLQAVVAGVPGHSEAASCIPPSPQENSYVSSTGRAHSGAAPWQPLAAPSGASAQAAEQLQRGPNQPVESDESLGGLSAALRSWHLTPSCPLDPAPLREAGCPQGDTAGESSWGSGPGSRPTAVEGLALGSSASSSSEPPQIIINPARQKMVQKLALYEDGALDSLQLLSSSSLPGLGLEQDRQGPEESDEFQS
UniProt Q6ZWS8: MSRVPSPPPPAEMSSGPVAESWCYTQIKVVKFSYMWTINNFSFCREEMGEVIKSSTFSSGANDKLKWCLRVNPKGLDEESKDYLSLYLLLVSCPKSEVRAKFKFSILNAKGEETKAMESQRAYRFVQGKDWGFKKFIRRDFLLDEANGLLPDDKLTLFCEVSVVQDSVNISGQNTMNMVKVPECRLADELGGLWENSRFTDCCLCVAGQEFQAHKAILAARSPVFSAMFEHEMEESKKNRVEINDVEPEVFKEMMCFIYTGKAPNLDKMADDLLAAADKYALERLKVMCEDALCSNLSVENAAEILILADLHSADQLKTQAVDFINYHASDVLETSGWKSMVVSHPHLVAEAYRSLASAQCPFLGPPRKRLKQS

Assay [1] has as its target TLR4, Flag- or HA-tagged (UniProt O00206). Kind of assay: co-IP; HEK293 cells transfected for 20 h; NP-40 lysis buffer (20 mM Tris-HCl pH 7.4, 150 mM NaCl, 1 mM EDTA, 1% NP-40); antibody (anti-HA in Fig. 1b) or control IgG with protein G sepharose, 4 °C, 3 h; washes with lysis buffer containing 0.5 M NaCl; immunoblot; with or without overexpressed SPOP in Fig. 4b and Supplementary Fig. S5e, f. Background: Immunoblotting shows a protein as a band on a membrane.

Assay [2] has as its target endogenous MyD88 of THP-1 cells (human (endogenous in THP-1)) (UniProt Q99836). In words: co-IP; endogenous proteins, THP-1 cells (wild type or SPOP-deficient) treated with LPS (100 ng/mL) for the indicated times; lysed and precipitated as for the transfected cells.
Assay [3] addresses endogenous mouse MyD88 of RAW264.7 cells (mouse (endogenous in RAW264.7)) (UniProt P22366). Kind of assay: co-IP; endogenous proteins, RAW264.7 cells left untreated or treated with LPS (100 ng/mL) for the indicated times.

No constants are given. Whether binding was seen depends on the method and setting. In cells and extracts the contact can be indirect. Some entries that bind do so weakly or less than the wild type.

In the case of “MyD88 adapter-like (Mal), Flag- or HA-tagged (from UniProt P58753 1-221)”, in assay [1], the binding entry is “binds”.
As for “endogenous IRAK1 of THP-1 cells (from UniProt P51617 1-712) (enzyme)”, in assay [2], the binding entry is given as “binds”.
For “endogenous mouse SPOP of RAW264.7 cells (from UniProt Q6ZWS8 1-374)”, the binding entry in assay [3] is listed as “binds”.
“myeloid differentiation primary response gene 88 (MyD88), Flag- or HA-tagged, full length (from UniProt Q99836 1-296)”: the binding result in assay [1] is “binds”.
